{"source": "PubChem BioAssay AID1508597 | Cure First | 2020", "screen": "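Genes whose silencing sensitises or protects ovarian cancer cells against rucaparib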 (primary screen)", "cells": "human ovarian carcinoma lines grown from tumours: OCI-P5x (papillary serous) and OCI-C5x (clear cell)", "knock-down reagent": "siRNA pool against human genes, 1.25 pmol siRNA per well", "duration": "72 h or 96 h, depending on the cell culture", "challenge": "rucaparib 20 µM (about IC30) or vehicle, present until read-out", "rucaparib or vehicle": "Rucaparib", "cell line": "OCI-P5x (serous)", "detection": "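ATP luminescence measured at 72 or 96 h according to the culture, then normalised and expressed as percent viability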", "direction": "viability, normalised: higher = more viable cells remaining", "hit rule": "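a well counts as a hit if its normalised viability is under 80 percent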", "meaning of the calls": "active = viability under 80%; inactive = viability 80% or more", "note": "This is a random part of the about 2,100 reagents, in one setting of the screen. 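Calls flag viability under 80% in either arm, not effects specific to rucaparib; the reference for percent is not stated.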 Some reagents were tested in more than one well and are listed for each. Not given: the 100% reference."}
{"gene knocked down":"VPS72 (vacuolar protein sorting 72 homolog)","technical replicate":"1","viability, normalised (%)":55.1,"Call":"active"}
{"gene knocked down":"VPS72 (vacuolar protein sorting 72 homolog)","technical replicate":"2","viability, normalised (%)":62.3,"Call":"active"}
{"gene knocked down":"VPS72 (vacuolar protein sorting 72 homolog)","technical replicate":"3","viability, normalised (%)":52.7,"Call":"active"}
{"gene knocked down":"WEE1 (WEE1 G2 checkpoint kinase)","technical replicate":"1","viability, normalised (%)":30.4,"Call":"active"}
{"gene knocked down":"WEE1 (WEE1 G2 checkpoint kinase)","technical replicate":"1","viability, normalised (%)":72,"Call":"active"}
{"gene knocked down":"WEE1 (WEE1 G2 checkpoint kinase)","technical replicate":"2","viability, normalised (%)":29.4,"Call":"active"}
{"gene knocked down":"WEE1 (WEE1 G2 checkpoint kinase)","technical replicate":"2","viability, normalised (%)":71.5,"Call":"active"}
{"gene knocked down":"WEE1 (WEE1 G2 checkpoint kinase)","technical replicate":"3","viability, normalised (%)":30.8,"Call":"active"}
{"gene knocked down":"WEE1 (WEE1 G2 checkpoint kinase)","technical replicate":"3","viability, normalised (%)":51.7,"Call":"active"}
{"gene knocked down":"RIOK2 (RIO kinase 2)","technical replicate":"1","viability, normalised (%)":105,"Call":"inactive"}
{"gene knocked down":"RIOK2 (RIO kinase 2)","technical replicate":"2","viability, normalised (%)":85.1,"Call":"inactive"}
{"gene knocked down":"RIOK2 (RIO kinase 2)","technical replicate":"3","viability, normalised (%)":98.2,"Call":"inactive"}
{"gene knocked down":"BMPR2 (bone morphogenetic protein receptor type 2)","technical replicate":"1","viability, normalised (%)":83,"Call":"inactive"}
{"gene knocked down":"BMPR2 (bone morphogenetic protein receptor type 2)","technical replicate":"2","viability, normalised (%)":87.4,"Call":"inactive"}
{"gene knocked down":"BMPR2 (bone morphogenetic protein receptor type 2)","technical replicate":"3","viability, normalised (%)":78.4,"Call":"active"}
{"gene knocked down":"DNMT3L (DNA methyltransferase 3 like)","technical replicate":"1","viability, normalised (%)":71,"Call":"active"}
{"gene knocked down":"DNMT3L (DNA methyltransferase 3 like)","technical replicate":"2","viability, normalised (%)":58.1,"Call":"active"}
{"gene knocked down":"DNMT3L (DNA methyltransferase 3 like)","technical replicate":"3","viability, normalised (%)":63.4,"Call":"active"}

Single entries from above:
RIOK2 (RIO kinase 2), technical replicate 2, Call → inactive
Entry for DNMT3L (DNA methyltransferase 3 like), technical replicate 3 under “Call”: active
Under “viability, normalised (%)”, DNMT3L (DNA methyltransferase 3 like), technical replicate 2 reads 58.1
BMPR2 (bone morphogenetic protein receptor type 2), technical replicate 3, viability, normalised (%): 78.4
Under “viability, normalised (%)”, RIOK2 (RIO kinase 2), technical replicate 3 reads 98.2
VPS72 (vacuolar protein sorting 72 homolog), technical replicate 1, Call = active

Further reagents follow:
{"gene knocked down":"DCLRE1A (DNA cross-link repair 1A)","technical replicate":"1","viability, normalised (%)":63.8,"Call":"active"}
{"gene knocked down":"DCLRE1A (DNA cross-link repair 1A)","technical replicate":"2","viability, normalised (%)":65.9,"Call":"active"}
{"gene knocked down":"DCLRE1A (DNA cross-link repair 1A)","technical replicate":"3","viability, normalised (%)":59.6,"Call":"active"}
{"gene knocked down":"MED13 (mediator complex subunit 13)","technical replicate":"1","viability, normalised (%)":67,"Call":"active"}
{"gene knocked down":"MED13 (mediator complex subunit 13)","technical replicate":"2","viability, normalised (%)":51.8,"Call":"active"}
{"gene knocked down":"MED13 (mediator complex subunit 13)","technical replicate":"3","viability, normalised (%)":66.7,"Call":"active"}
{"gene knocked down":"HNF1A (HNF1 homeobox A)","technical replicate":"1","viability, normalised (%)":47.1,"Call":"active"}
{"gene knocked down":"HNF1A (HNF1 homeobox A)","technical replicate":"2","viability, normalised (%)":48.6,"Call":"active"}
{"gene knocked down":"HNF1A (HNF1 homeobox A)","technical replicate":"3","viability, normalised (%)":51.4,"Call":"active"}
{"gene knocked down":"CHAF1A (chromatin assembly factor 1 subunit A)","technical replicate":"1","viability, normalised (%)":76.5,"Call":"active"}
{"gene knocked down":"CHAF1A (chromatin assembly factor 1 subunit A)","technical replicate":"1","viability, normalised (%)":61.3,"Call":"active"}
{"gene knocked down":"CHAF1A (chromatin assembly factor 1 subunit A)","technical replicate":"2","viability, normalised (%)":60.1,"Call":"active"}
{"gene knocked down":"CHAF1A (chromatin assembly factor 1 subunit A)","technical replicate":"2","viability, normalised (%)":79.2,"Call":"active"}
{"gene knocked down":"CHAF1A (chromatin assembly factor 1 subunit A)","technical replicate":"3","viability, normalised (%)":54.1,"Call":"active"}
{"gene knocked down":"CHAF1A (chromatin assembly factor 1 subunit A)","technical replicate":"3","viability, normalised (%)":56.7,"Call":"active"}
